## Results of single-concentration screens

By UniProt entry, the sequences of proteins in these tests, tags left out.
UniProt I6X8D2, whole entry: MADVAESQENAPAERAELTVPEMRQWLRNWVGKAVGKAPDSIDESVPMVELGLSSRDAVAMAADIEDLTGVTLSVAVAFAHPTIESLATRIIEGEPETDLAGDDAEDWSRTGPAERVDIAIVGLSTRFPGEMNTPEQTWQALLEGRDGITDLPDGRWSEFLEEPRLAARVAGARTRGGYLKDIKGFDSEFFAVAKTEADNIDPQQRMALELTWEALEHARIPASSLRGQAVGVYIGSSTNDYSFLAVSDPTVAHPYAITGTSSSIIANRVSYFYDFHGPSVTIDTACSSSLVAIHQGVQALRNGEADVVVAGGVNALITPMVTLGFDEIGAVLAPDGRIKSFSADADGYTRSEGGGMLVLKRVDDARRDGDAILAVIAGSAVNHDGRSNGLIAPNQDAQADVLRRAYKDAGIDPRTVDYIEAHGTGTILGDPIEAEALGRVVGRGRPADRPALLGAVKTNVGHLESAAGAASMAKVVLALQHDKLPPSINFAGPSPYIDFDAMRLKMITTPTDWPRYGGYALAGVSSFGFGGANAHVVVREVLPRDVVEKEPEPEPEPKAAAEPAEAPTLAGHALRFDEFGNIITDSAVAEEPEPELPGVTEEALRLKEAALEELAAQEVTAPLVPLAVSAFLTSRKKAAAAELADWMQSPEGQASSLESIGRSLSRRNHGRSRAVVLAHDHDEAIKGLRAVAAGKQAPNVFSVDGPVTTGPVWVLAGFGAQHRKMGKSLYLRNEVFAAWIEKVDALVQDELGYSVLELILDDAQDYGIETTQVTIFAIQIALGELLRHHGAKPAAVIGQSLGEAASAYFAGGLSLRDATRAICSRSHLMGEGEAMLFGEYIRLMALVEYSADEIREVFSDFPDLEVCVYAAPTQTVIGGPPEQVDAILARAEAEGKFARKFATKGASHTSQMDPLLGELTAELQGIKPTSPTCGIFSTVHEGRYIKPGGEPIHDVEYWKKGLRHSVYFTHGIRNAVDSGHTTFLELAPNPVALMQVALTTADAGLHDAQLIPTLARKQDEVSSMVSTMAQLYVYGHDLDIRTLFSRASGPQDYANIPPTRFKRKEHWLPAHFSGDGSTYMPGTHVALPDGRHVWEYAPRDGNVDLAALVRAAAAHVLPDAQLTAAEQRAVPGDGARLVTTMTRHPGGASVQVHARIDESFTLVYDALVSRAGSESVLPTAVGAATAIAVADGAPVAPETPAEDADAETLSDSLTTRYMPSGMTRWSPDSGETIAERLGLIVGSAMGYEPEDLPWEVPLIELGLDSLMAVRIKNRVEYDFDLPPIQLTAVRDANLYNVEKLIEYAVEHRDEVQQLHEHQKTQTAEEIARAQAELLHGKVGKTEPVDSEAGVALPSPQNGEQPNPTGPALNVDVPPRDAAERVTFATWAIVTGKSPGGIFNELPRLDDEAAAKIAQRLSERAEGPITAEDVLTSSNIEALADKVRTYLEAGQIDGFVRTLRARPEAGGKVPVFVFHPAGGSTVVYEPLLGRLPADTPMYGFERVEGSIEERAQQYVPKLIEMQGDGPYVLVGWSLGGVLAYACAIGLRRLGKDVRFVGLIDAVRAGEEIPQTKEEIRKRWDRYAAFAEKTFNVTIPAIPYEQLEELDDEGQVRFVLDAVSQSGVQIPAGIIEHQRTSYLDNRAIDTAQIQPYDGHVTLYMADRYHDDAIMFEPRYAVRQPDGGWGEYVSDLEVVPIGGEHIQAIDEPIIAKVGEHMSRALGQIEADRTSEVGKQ

Data taken from ChEMBL document CHEMBL3988442, “University of Dundee, Small-Polar-MMV Screening Library” (2021).

The filed quantity is “Percent Effect” (%). The record does not define 0% and 100%; most values in the screen are far below 50% and negative numbers occur (in some assays of this library far below -100). The compounds are a random part of those screened.

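Enzyme assay of the thioesterase domain of polyketide synthase 13; the read-out is not stated. Target: Polyketide synthase Pks13, Mycobacterium tuberculosis (UniProt I6X8D2). Tested at 30 µM. The record gives no direction; the compounds picked for IC50 retests had high values, so higher reads as stronger inhibition. About 67,000 compounds were tested under these conditions; 0.46% (about 300) showed 50% or more at least once.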

| compound | effect |
|---|---|
| `Cc1cccc(-c2ccc(C(=O)NCC3CCCO3)c(=O)[nH]2)c1` (centres unmarked) | 23.84 |
| `c1ccc2c(c1)CC(n1ccnc1-c1cc3n(n1)CCNC3)CO2` (centres unmarked) | -31.39 |
| `O=C1C(N2CCOC3(CCCC3)C2)CCN1C1CC1` (centres unmarked) | 0.2542 |
| `COc1cccc(-c2noc(CN3CCOCC3C)n2)c1` (centres unmarked) | -1.73 |
| `CCN(CC)c1ccc(CNC(=O)C2(C)CCOCC2)cc1F` | -12.18 |
| `CC(C)c1ccc(-n2cc(O)c(C(=O)O)n2)cc1` | 5.206 |
| `Cc1cc(-c2cnc(N3CCC(O)CC3)nc2-c2cccnc2C)on1` | -10.93 |
| `COCCOC(=O)N1CC2=CC(C)(C)COc3ccc(OC)c(c32)C1` | -10.22 |
| `Cc1c(Cl)c(C(=O)N2CC[C@H](N3CCOCC3)[C@H](CCCO)C2)nn1C` | -23.25 |
| `COC(=O)N1CCCCC1C(=O)N1CCCN(c2ccnc(C)c2)CC1` (centres unmarked) | -7.69 |
| `COCCn1cnc2ccc(NC(=O)c3ccccn3)cc2c1=O` | -3.428 |
| `CN(Cc1ccc(C#N)cc1)CC1CCS(=O)(=O)C1` (centres unmarked) | -5.368 |
| `O=C(Cn1c(=O)n(Cc2ccco2)c2ncccc21)NC1CCCC1` | 1.461 |
| `COc1ccc(CNC(=O)N2CCc3sccc3C2)cc1O` | -4.966 |
| `COCC(=O)NC(C)Cc1cccc(OC)c1` (centres unmarked) | -7.507 |
| `CC(C)NC(=O)c1ccn(COc2c(Cl)cccc2Cl)n1` | -18.89 |
| `CC(=O)N1CC[C@H]2OCC[C@@H](C(=O)Nc3cccnc3C)[C@H]2C1` | 5.143 |
| `COc1ccc(Cl)cc1S(=O)(=O)N1C[C@@H]2CC[C@H](C1)N(C)C2=O` | -9.953 |
| `Cc1nn(-c2ccccn2)c2c1C(c1cnn(C)c1)SCC(=O)N2` (centres unmarked) | -56.14 |
| `CCn1cc(C(=O)N2CCCC(c3[nH]ncc3S(C)(=O)=O)C2)cn1` (centres unmarked) | -28.01 |
| `CNc1ccnc(N2C[C@@H]3CC[C@H](C2)N(CCOC)C3=O)n1` | -22.74 |
| `Cc1cc(C(=O)NCc2ccc(-c3n[nH]cc3C(=O)N(C)C)cc2)on1` | 9.154 |
| `Cc1n[nH]c(C)c1CNC(=O)NC1CCCCC1` | -33.32 |
| `O=C(N1CCCO1)[C@@]12CCO[C@@H]1CCN(Cc1cccs1)C2` | -6.113 |
| `CC(CCSc1ccccc1)N1CCN(C(=O)c2ccccc2O)CC1` (centres unmarked) | -24.05 |
| `CC(=O)c1ccc(C(=O)N2C[C@@H]3CC[C@H](C2)N(Cc2ccccc2)C3)s1` | -1.553 |
| `O=C(CCN1CCCO1)N1CC[C@@H](CNC(=O)N2CCCC2)[C@H](O)C1` | 6.375 |
| `O=C(c1nnn(-c2ccc(C(F)(F)F)cc2)n1)N1CCC(O)CC1` | 2.274 |
| `O=C(NCCc1ccccc1)c1cn(CCNCc2cccnc2)nn1` | -1.333 |
| `CCCn1ncc(CN2C[C@@H]3CCCN3C[C@@H]2CCSC)c1C` | -44.22 |
| `Clc1ccc2cccnc2c1CN1CCn2c(nnc2C2CC2)C1` | -9.972 |
| `Cc1noc(C)c1C(=O)N1C[C@@H]2CCCO[C@@H]2[C@H](N(C)C)C1` | -36.7 |
| `N#Cc1ccccc1OCCN1CCC(C(=O)N2CCOCC2)CC1` | -7.328 |
| `COc1cc(NCC(=O)NC(C)(C#N)C(C)C)cc(OC)c1OC` (centres unmarked) | -3.222 |
| `CC(C)c1nnc2n1CCN(C(=O)c1cccc(OCC(N)=O)c1)C2` | 3.789 |
| `CCCOc1cc(CNC(=O)Nc2cccc(C(C)=O)c2)ccn1` | -11.73 |
| `O=C(CC1CC1)N1C[C@H]2CCN[C@H]2C1` | 1.788 |
| `COc1ccc(CN2C[C@@H](CN(C)C)[C@@H](CO)C2)cc1CN1CCCC1` | 1.714 |
| `CN(CCCc1n[nH]c(N)c1C#N)C(=O)Nc1cc(Cl)cc(Cl)c1` | 3.951 |
| `Cc1cccc(SC2CCN(Cc3nc(CC4CC4)no3)CC2)c1` | -25.91 |
| `CCS(=O)(=O)N1CCC[C@]2(C(=O)N(C)C)CN(c3ccccn3)C[C@@H]2C1` | -0.445 |
| `O=C1CO[C@@H]2CN(Cc3cccs3)C[C@H]2N1Cc1cccnc1` | 0.246 |
| `Cc1ccc(F)cc1NC(=O)c1[nH]ncc1Br` | -28.63 |
| `Cc1cc(=O)n(C)cc1NC(=O)NCc1cccc(F)c1` | -4.923 |
| `CN(Cc1ccncc1)c1cncc(Br)c1` | -10.28 |
| `CC(C)CCN1CCN(Cc2nc(C3CC3)no2)CC1` | -5.974 |
| `CCc1nnc2n1CCN(C(=O)c1cnc3ccccc3n1)C2` | -7.584 |
| `CN(Cc1cccc(C(N)=O)c1)CC1CCCN1c1cccnn1` (centres unmarked) | -6.45 |
| `Cc1cc(C)cc(OCCC(=O)NC2CC(=O)N(C)C2)c1` (centres unmarked) | -40.01 |
| `CO[C@H]1CO[C@@]2(CCCN(C(=O)N3CCCC3)C2)C1` | -10.43 |
| `O=C(NCCOc1ccc2c(c1)OCO2)C1CC(=O)N(CC2CC2)C1` (centres unmarked) | -16.35 |
| `CCc1nnc(Nc2cc(C)nc(C3CCN(c4ncccn4)C3)n2)s1` (centres unmarked) | 1.688 |
| `COc1nc2c(cc1C(=O)NCCc1nc3ccccc3s1)CCC2` | -26.4 |
| `COc1ccc(CNC(=O)CN2CCc3ccccc32)cc1` | 7.166 |
| `CC(C)Cn1cnnc1C1CCCN1C(=O)OC(C)(C)C` (centres unmarked) | -30.36 |
| `O=C(c1ccc2nccnc2c1)N1C[C@@H](CN2CCCC2)[C@@H](CO)C1` | -13.77 |
| `Cc1noc([C@H]2COC[C@H]3CN(C(=O)Cc4cccs4)C[C@H]32)n1` | 6.166 |
| `CCCC(=O)Nc1cccc(C(=O)N(C)CCCC2CCCO2)c1` (centres unmarked) | 8.405 |
| `Cc1cccc(-c2noc(CN3CCCC3Cn3cncn3)n2)c1` (centres unmarked) | 14.58 |
| `Cc1ccc2cc(CN(C)Cc3ncc[nH]3)c(=O)[nH]c2c1` | -26.01 |
| `CCS(=O)(=O)c1ccccc1N1CCC(NC(C)=O)CC1` | -7.978 |
| `COc1ccc(OCCNCCn2cccn2)cc1` | -12.24 |
| `c1ccc(-c2ncn(CCCN3CCOCC3)c2-c2ccncc2)cc1` | -34.73 |
| `Cn1cnc2c1CCN(Cc1cccc(OCC(N)=O)c1)C2` | -3.791 |
| `Cc1nnc(NC(=O)CN2CCc3c(nc(C(C)C)n3C)C2)s1` | -8.393 |
| `CCCn1ccnc1CN1CCCC(O)(CN2CCCC2)C1` (centres unmarked) | -22.97 |
| `CCC(CNC(=O)c1ccccc1Br)N1CCc2ccccc2C1` (centres unmarked) | -35.86 |
| `CCn1ncc(CNC(=O)c2cn(CCC3CCCCN3)nn2)c1C` (centres unmarked) | -7.964 |
| `CC(CNC(=O)c1ccn(-c2ccc(F)cc2)n1)Cn1cccn1` (centres unmarked) | -31.19 |
| `OC(CN1CC(n2cccn2)C1)c1ccc2c(c1)OCCO2` (centres unmarked) | -29.35 |
| `NC(=O)c1cc2c(nc1Oc1ccc(CN3CCCC3)cc1F)CCC2` | -0.1483 |
| `Cn1cc(CN2CC[C@H]3O[C@H](C(=O)NCc4ccco4)CC[C@H]32)cn1` | -9.638 |
| `CC(C)c1cc(NC(=O)CN2CCc3nn(C)c(=O)cc3C2)on1` | -17.52 |
| `Cc1noc(C)c1C(=O)N1CCCC1c1c(C)nn(C)c1Cl` (centres unmarked) | -26.17 |
| `O=S1(=O)CCC(CNS(=O)(=O)N2CCc3ccccc3C2)C1` (centres unmarked) | 10.05 |
| `Cc1cnc(NC(=O)c2csc(NC3CCCC3)n2)s1` | 19.77 |
| `Cc1cc(CN(C)C(=O)c2ccc(F)cc2Br)no1` | -31.69 |